Reference: PubChem BioAssay AID1224830 (NIAID, 2016)
Screen: 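Genes whose knock-down alters the TNF-alpha reporter response to LPS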 (primary screen). System: human THP-1 monocytic leukaemia cells, TNF dual-luciferase reporter clone, PMA-differentiated to macrophage-like cells. Reagent: siRNA pool against human genes, 50 nM. Timing: LPS for 4 h, given about 3 days after siRNA transfection. Conditions: bacterial LPS (TLR4 ligand), 10 ng/ml. Measured: 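TNF firefly reporter luminescence divided by renilla, normalised to the plate median, then turned into a robust z-score for each replicate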. Scale: TNF reporter robust z-score: higher = stronger TNF reporter response to LPS. Hit rule: 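a well is active when its z-score exceeds 2.8 or falls below -1.5; control wells carry no call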.
In all, the deposit lists about 18,000 reagents; this is a random part of them. Of all reagents, about 2,900 (16%) were called active. 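Calls are made per well; low scores hint the gene aids the LPS response, high scores that it dampens it.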 Repeated entries: four replicate wells of each siRNA pool.

{"target": "SPATC1", "PubChem SID": "SID315464378", "TNF reporter robust z-score": 0.04, "outcome": "inactive"}
{"target": "SPATC1", "PubChem SID": "SID315464378", "TNF reporter robust z-score": -1.11, "outcome": "inactive"}
{"target": "SPATC1", "PubChem SID": "SID315464378", "TNF reporter robust z-score": 0.86, "outcome": "inactive"}
{"target": "SPATC1", "PubChem SID": "SID315464378", "TNF reporter robust z-score": 0, "outcome": "inactive"}
{"target": "RNF213", "PubChem SID": "SID315458539", "TNF reporter robust z-score": -0.36, "outcome": "inactive"}
{"target": "RNF213", "PubChem SID": "SID315458539", "TNF reporter robust z-score": 0.48, "outcome": "inactive"}
{"target": "RNF213", "PubChem SID": "SID315458539", "TNF reporter robust z-score": 1.25, "outcome": "inactive"}
{"target": "RNF213", "PubChem SID": "SID315458539", "TNF reporter robust z-score": 1.21, "outcome": "inactive"}
{"target": "RNF213", "PubChem SID": "SID315458566", "TNF reporter robust z-score": -1.43, "outcome": "inactive"}
{"target": "RNF213", "PubChem SID": "SID315458566", "TNF reporter robust z-score": -1.11, "outcome": "inactive"}
{"target": "RNF213", "PubChem SID": "SID315458566", "TNF reporter robust z-score": -1.48, "outcome": "inactive"}
{"target": "RNF213", "PubChem SID": "SID315458566", "TNF reporter robust z-score": 0.05, "outcome": "inactive"}
{"target": "KIF5C", "PubChem SID": "SID315449650", "TNF reporter robust z-score": 0.71, "outcome": "inactive"}
{"target": "KIF5C", "PubChem SID": "SID315449650", "TNF reporter robust z-score": -0.56, "outcome": "inactive"}
{"target": "KIF5C", "PubChem SID": "SID315449650", "TNF reporter robust z-score": -0.85, "outcome": "inactive"}
{"target": "KIF5C", "PubChem SID": "SID315449650", "TNF reporter robust z-score": -0.18, "outcome": "inactive"}
{"target": "SERPINH1", "PubChem SID": "SID315447728", "TNF reporter robust z-score": -0.13, "outcome": "inactive"}
{"target": "SERPINH1", "PubChem SID": "SID315447728", "TNF reporter robust z-score": 0.12, "outcome": "inactive"}
{"target": "SERPINH1", "PubChem SID": "SID315447728", "TNF reporter robust z-score": -0.34, "outcome": "inactive"}
{"target": "SERPINH1", "PubChem SID": "SID315447728", "TNF reporter robust z-score": 0.47, "outcome": "inactive"}
{"target": "CXCL10", "PubChem SID": "SID315449510", "TNF reporter robust z-score": -0.31, "outcome": "inactive"}
{"target": "CXCL10", "PubChem SID": "SID315449510", "TNF reporter robust z-score": -0.2, "outcome": "inactive"}
{"target": "CXCL10", "PubChem SID": "SID315449510", "TNF reporter robust z-score": -0.89, "outcome": "inactive"}
{"target": "CXCL10", "PubChem SID": "SID315449510", "TNF reporter robust z-score": 0.07, "outcome": "inactive"}
{"target": "TBKBP1", "PubChem SID": "SID315453538", "TNF reporter robust z-score": -0.3, "outcome": "inactive"}
{"target": "TBKBP1", "PubChem SID": "SID315453538", "TNF reporter robust z-score": 0.14, "outcome": "inactive"}
{"target": "TBKBP1", "PubChem SID": "SID315453538", "TNF reporter robust z-score": -0.58, "outcome": "inactive"}
{"target": "TBKBP1", "PubChem SID": "SID315453538", "TNF reporter robust z-score": -0.27, "outcome": "inactive"}
{"target": "CRISP2", "PubChem SID": "SID315451963", "TNF reporter robust z-score": -1.13, "outcome": "inactive"}
{"target": "CRISP2", "PubChem SID": "SID315451963", "TNF reporter robust z-score": -1.42, "outcome": "inactive"}
{"target": "CRISP2", "PubChem SID": "SID315451963", "TNF reporter robust z-score": -1.05, "outcome": "inactive"}
{"target": "CRISP2", "PubChem SID": "SID315451963", "TNF reporter robust z-score": -1.1, "outcome": "inactive"}
{"target": "MRGBP", "PubChem SID": "SID315457541", "TNF reporter robust z-score": 0.57, "outcome": "inactive"}
{"target": "MRGBP", "PubChem SID": "SID315457541", "TNF reporter robust z-score": -1.01, "outcome": "inactive"}
{"target": "MRGBP", "PubChem SID": "SID315457541", "TNF reporter robust z-score": -0.65, "outcome": "inactive"}
{"target": "MRGBP", "PubChem SID": "SID315457541", "TNF reporter robust z-score": -0.02, "outcome": "inactive"}
{"target": "MRO", "PubChem SID": "SID315460108", "TNF reporter robust z-score": 0.44, "outcome": "inactive"}
{"target": "MRO", "PubChem SID": "SID315460108", "TNF reporter robust z-score": 0.35, "outcome": "inactive"}
{"target": "MRO", "PubChem SID": "SID315460108", "TNF reporter robust z-score": 0.06, "outcome": "inactive"}
{"target": "MRO", "PubChem SID": "SID315460108", "TNF reporter robust z-score": 0.71, "outcome": "inactive"}
{"target": "DBP", "PubChem SID": "SID315448254", "TNF reporter robust z-score": -0.35, "outcome": "inactive"}
{"target": "DBP", "PubChem SID": "SID315448254", "TNF reporter robust z-score": -0.14, "outcome": "inactive"}
{"target": "DBP", "PubChem SID": "SID315448254", "TNF reporter robust z-score": -0.28, "outcome": "inactive"}
{"target": "DBP", "PubChem SID": "SID315448254", "TNF reporter robust z-score": 0.18, "outcome": "inactive"}
{"target": "BTNL9", "PubChem SID": "SID315462568", "TNF reporter robust z-score": 0.33, "outcome": "inactive"}
{"target": "BTNL9", "PubChem SID": "SID315462568", "TNF reporter robust z-score": 0.98, "outcome": "inactive"}
{"target": "BTNL9", "PubChem SID": "SID315462568", "TNF reporter robust z-score": 0.97, "outcome": "inactive"}

Sorted by “TNF reporter robust z-score” (lowest first): some entries from above.
{"target": "SPATC1", "PubChem SID": "SID315464378", "TNF reporter robust z-score": -1.11, "outcome": "inactive"}
{"target": "RNF213", "PubChem SID": "SID315458539", "TNF reporter robust z-score": -0.36, "outcome": "inactive"}
{"target": "SPATC1", "PubChem SID": "SID315464378", "TNF reporter robust z-score": 0, "outcome": "inactive"}
{"target": "RNF213", "PubChem SID": "SID315458539", "TNF reporter robust z-score": 0.48, "outcome": "inactive"}
{"target": "SPATC1", "PubChem SID": "SID315464378", "TNF reporter robust z-score": 0.86, "outcome": "inactive"}
{"target": "RNF213", "PubChem SID": "SID315458539", "TNF reporter robust z-score": 1.25, "outcome": "inactive"}
